In paper doi:10.1101/2024.07.03.601867:
These are yes or no findings as the source states them, for the method shown. In cells and extracts the contact can be indirect. Some binding calls cover weakened binding; strength is not graded here.

Chains of the proteins cited; added tags and fusions are not shown. Residues count along the entry.
UniProt P25106: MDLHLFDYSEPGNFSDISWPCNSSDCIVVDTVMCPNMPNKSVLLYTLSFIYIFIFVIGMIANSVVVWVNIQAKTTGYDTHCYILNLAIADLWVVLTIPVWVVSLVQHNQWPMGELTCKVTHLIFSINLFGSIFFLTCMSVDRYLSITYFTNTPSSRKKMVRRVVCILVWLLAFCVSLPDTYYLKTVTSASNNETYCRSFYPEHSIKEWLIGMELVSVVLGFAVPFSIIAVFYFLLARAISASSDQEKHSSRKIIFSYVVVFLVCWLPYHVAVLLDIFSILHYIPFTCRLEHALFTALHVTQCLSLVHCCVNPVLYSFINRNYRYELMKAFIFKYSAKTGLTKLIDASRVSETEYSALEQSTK
UniProt P40224, residues 22-93: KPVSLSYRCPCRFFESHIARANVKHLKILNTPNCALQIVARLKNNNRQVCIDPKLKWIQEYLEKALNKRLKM

Molecular target: Flag-Human CXCR7(ACKR3)-Tango (human) (UniProt P25106)
Experiment: pull-down

binding: binds
Substance: C-X-C motif chemokine 12 (Cxcl12) at the synaptosome surface (from UniProt P40224 22-93) (ligand)
